The structures given here were assigned with low confidence; some may be wrong.

The test addresses N-terminal HiBiT tagged BCL6 (Homo sapiens, UniProt P41182). The experiment in a line: HiBiT based degradation assay. The conditions noted are these: HT1080 cells expressing N-terminal HiBiT tagged BCL6, 5 hours of incubation. The source says: Human BCL6 protein coding open reading frame fused with N-terminal HiBiT coding sequence was synthesized from Integrated DNA Technologies (IDT). Next, the N-HiBiT-BCL6 sequence was cloned into pLV-UBC-PGK-Puro, a lentivirus plasmid purchased from Vectorbuilder, to generate pLV-UBC-N-HiBiT-BCL6-PGK-puro. Lentiviral particles were generated from Lenti-X™ 293T cells (Clontech) by co-transfection of pLV-UBC-N-HiBiT-BCL6-PGK-puro plasmids and lentiviral packaging plasmid mix (Cellecta). HT1080 [HT1080] (ATCC CCL-121) cells were infected with the lentivirus, and HT1080 cells stably integrated with the lentiviral vectors were established by incubation with 1 μg/mL puromycin (Thermofisher).
HT1080 cells expressing N-terminal HiBiT tagged BCL6 were dispensed into a 384-well plate pre-spotted with compounds at varying concentrations. Five thousand cells were seeded into each well in 40 μL of RPMI 1640 media plus 10% Fetal Bovine Serum (10082-147, Thermofisher). After 5 hours of incubation at 37° C. with 5% CO2, 30 μL of the NANO-GLOR HiBiT Lytic Detection System working solution (Promega) was added to each well and incubated at room temperature for 15 min. After incubation, luminescence was read on a PHERAstar FSX Plate Reader (BMG). BCL6 degradation at each indicated concentration was normalized with DMSO control. The BCL6 degradation curves were plotted using a four-parameter logistic model.

In the case of `CNC(=O)COc1cc2cc(Nc3nc(N4CCC5(CCN(CC6CCN(c7ccc8c(C9CCC(=O)NC9=O)nn(C)c8c7)CC6)CC5)CC4)ncc3Cl)cnc2n(C)c1=O` (centres unmarked), the “Ymin (5 hr)” value (BCL6 degradation normalized with DMSO control) is reported as “++++ (Ymin < 30%)”. Moreover, for the setting “read-out: EC50 (5 hr), four-parameter logistic model”, the EC50 is less than 10 nM.
